Measurements as given in the supplement of paper PMC8288183.
Some of the results follow. Single values are uncertain, as repeats are few or missing.

Biological target: T1, NSUN6 (UniProt Q8TEA1)
T1 sequence: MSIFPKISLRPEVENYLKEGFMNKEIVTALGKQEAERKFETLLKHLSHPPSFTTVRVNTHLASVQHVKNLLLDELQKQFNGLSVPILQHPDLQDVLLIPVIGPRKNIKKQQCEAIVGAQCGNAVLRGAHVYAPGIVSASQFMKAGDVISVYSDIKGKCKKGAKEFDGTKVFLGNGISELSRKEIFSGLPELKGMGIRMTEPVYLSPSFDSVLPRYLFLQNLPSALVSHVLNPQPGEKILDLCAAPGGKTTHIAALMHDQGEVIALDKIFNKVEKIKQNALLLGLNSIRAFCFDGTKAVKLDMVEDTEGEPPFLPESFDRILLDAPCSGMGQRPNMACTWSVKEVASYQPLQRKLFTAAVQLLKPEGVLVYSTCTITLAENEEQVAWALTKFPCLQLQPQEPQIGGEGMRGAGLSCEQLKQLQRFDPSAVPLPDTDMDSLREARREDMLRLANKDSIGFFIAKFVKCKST
Test: m5C methylation level at the target C (C/(C+U) bisulfite reads) (fraction); higher = more methylation by NSUN6; extreme values may be limits of the assay
Settings: HEK293T (wild-type)
Protocol: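 High-throughput mutagenesis reporter. About 140 bp oligo-pool variants of four natural Type II m5C substrates (substrate #1 chr15:91425541; #2 RAB15 3'UTR chr14:65413377; #3 SULT2A1 5'UTR chr19:48389569; #4 NAAA CDS chr4:76857361) were cloned as 3'UTR elements of psiCHECK-2 luciferase and transfected into wild-type HEK293T cells. Total RNA was taken 48 h later and m5C level was measured by targeted bisulfite sequencing as C/(C+U) reads at the m5C site (one library).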

[1] = parent substrate: substrate #1 (main figure)

Sequence	m5C methylation level at the target C [1]	m5C methylation level at the target C (parent substrate: substrate #2)	m5C methylation level at the target C (parent substrate: substrate #3)	m5C methylation level at the target C (parent substrate: substrate #4)
CCGAAU	0	0.00398	0.000737	0.00111
ACACGA	0	0.00226	0.00249	0
GCAGAU	0	0	0	0.001
CCCUGG	0.0031	0	0.00185	0.0017
GCCGGG	0.000704	0.00175	0.00111	0.00183
ACCGAU	0	0	0.00311	0
UCGGUU	0.00787	0.000929	0	0.00131
UCGAUG	0	0.00101	0.00374	0.00303
UCGAUC	0.000457	0	0.00179	0
GCGCUU	0	0.00909	0.00199	0.000881
CCGACU	0	0.00506	0.00111	0.00788
CCCUUG	0	0.00198	0.00155	0.00579
UCGGGC	0.00334	0.00408	0.00132	0
GCGAGA	0.00237	0.000672	0.00123	0.00311
GCGCUG	0.00307	0	0.00197	0.000521
GCGUCU	0	0.000942	0.00545	0.00229
GCCGGC	0.00111	0.00164	0.00169	0.000399
UCGUAC	0.00134	0	0.000507	0.00772
UCGUGC	0.017	0.000912	0.00179	0.00323
GCGGCG	0.00131	0.00252	0.00203	0
UCAAAU	0	0	0	0
CCCUAU	0	0	0.000696	0.00103
UCCCAA	0.000524	0	0	0.00145
UCUCAU	0	0	0	0.00148
UCCUUU	0	0	0.00174	0.00066

Sequence	m5C methylation level at the target C [1]	m5C methylation level at the target C (parent substrate: substrate #2)	m5C methylation level at the target C (parent substrate: substrate #3)	m5C methylation level at the target C (parent substrate: substrate #4)
ACUUAC	0	0	0.000724	0.00103
CCUCAU	0	0	0	0
CCUCUA	0.156	0.0223	0.116	0.0279
CCUAAA	0.00143	0.00414	0	0
GCUACU	0.00263	0.00818	0.000419	0.000624
GCCAUA	0.00081	0.00131	0	0.00172
CCUGAA	0.00767	0.00416	0.00303	0.000623
UCCGGU	0	0	0	0.00339
GCCUCU	0.00298	0.00199	0.000761	0.00303
UCACUU	0.000781	0.0025	0.0134	0.00345
GCAGCA	0.00134	0	0.00264	0
ACCUGA	0.000746	0.00773	0	0.00124
UCAACG	0.00212	0.00112	0.0035	0
ACAGCU	0	0	0	0
CCACCA	0	0	0.000409	0.00281
ACUAGG	0.00408	0	0.00289	0
CCCUUU	0	0	0.000804	0.00317
CCCCUA	0	0.00207	0.00127	0.00225
GCGUAU	0.00241	0.00124	0.000917	0.00202
CCUGGU	0.000979	0	0.00234	0.000747
UCCCGA	0.00102	0.00134	0.000828	0
ACCAGC	0.00112	0.000666	0.000377	0.000521
CCAUAC	0	0	0	0.00207
ACUGGU	0	0	0.00331	0.0056
ACCGUU	0.000676	0	0.00094	0.00541

Sequence	m5C methylation level at the target C [1]	m5C methylation level at the target C (parent substrate: substrate #2)	m5C methylation level at the target C (parent substrate: substrate #3)	m5C methylation level at the target C (parent substrate: substrate #4)
CCACGC	0	0	0.000836	0.000458
CCGGAG	0.0113	0.00396	0.00307	0.00435
GCCACG	0	0.00177	0.00288	0.000752
UCCAGG	0.00143	0	0.00197	0.00177
GCGAGU	0.00352	0.00209	0.00441	0
UCACUC	0.000335	0	0.000747	0.00985
GCAUCA	0.00184	0	0.00111	0
ACCAUG	0	0.00169	0.000477	0.0013
ACCUUU	0.000693	0	0.00349	0.000902
GCUCGC	0.00485	0.0039	0.00185	0.00122
GCUAGC	0.00189	0.00274	0.00181	0.000635
UCCGAG	0.000941	0.00411	0.000904	0.000912
GCCGAA	0.000749	0.00239	0.00274	0
UCUUCC	0.00121	0	0	0.00102
ACGCGA	0.00521	0.00378	0.000708	0.00162
UCGUCG	0.000962	0.00252	0.00107	0.000827
ACUACA	0.000699	0	0.000611	0.00119
ACUAGA	0.00601	0.00452	0	0.000951
ACGUCA	0.00252	0	0.00226	0
ACCACU	0.0153	0	0.00502	0
GCUAAU	0.000998	0.0192	0.00281	0.00423
GCGAAA	0.00535	0.00455	0	0.0037
UCCGUA	0.00079	0.000933	0.000471	0.00126

An excerpt of these results, with each value named:
CCGGAG
  m5C methylation level at the target C [1]: 0.0113
  m5C methylation level at the target C (parent substrate: substrate #2): 0.00396
  m5C methylation level at the target C (parent substrate: substrate #3): 0.00307
  m5C methylation level at the target C (parent substrate: substrate #4): 0.00435
UCACUC
  m5C methylation level at the target C [1]: 0.000335
  m5C methylation level at the target C (parent substrate: substrate #2): 0
  m5C methylation level at the target C (parent substrate: substrate #3): 0.000747
  m5C methylation level at the target C (parent substrate: substrate #4): 0.00985
ACGUCA
  m5C methylation level at the target C [1]: 0.00252
  m5C methylation level at the target C (parent substrate: substrate #2): 0
  m5C methylation level at the target C (parent substrate: substrate #3): 0.00226
  m5C methylation level at the target C (parent substrate: substrate #4): 0
